Measured values reported in US20250366503A1, “NOVEL GLUCOPYRANOSIDE COMPOSITIONS FOR SWEETNESS ENHANCEMENT” (International Flavors & Fragrances Inc., priority 2022, published 2025).

Assay: Taste and smell evaluation of water solutions of the compounds
Description: Water solutions of exemplary compounds including lipedoside B-IIIb, ligurobustoside E and ligurobustoside K were each prepared and evaluated at 1, 2 and 5 ppm, respectively.

| Molecule | Taste and smell of water solution (water solution, 5 ppm) | Taste and smell of water solution (water solution, 1, 2 and 5 ppm) |
| --- | --- | --- |
| CC(C)=CCC/C(C)=C/CO[C@@H]1O[C@H](COC(=O)/C=C/c2ccc(O)cc2)[C@@H](O)[C@H](O[C@@H]2O[C@@H](C)[C@H](O)[C@@H](O)[C@H]2O)[C@H]1O [Ligurobustoside E, ligurobustoside E] | slight astringency |  |
| ligurobustoside K |  | devoid of taste and smell |
| lipedoside B-IIIb |  | devoid of taste and smell |
